{"source": "paper PMC10640585", "about": "“The E3 ligase Riplet promotes RIG-I signaling independent of RIG-I oligomerization” (Nature Communications, 2023)", "binders": {"B1": {"name": "Riplet, full-length (Riplet-FL), Q8IUD6 1-432 (enzyme)", "chain": "MAGLGLGSAVPVWLAEDDLGCIICQGLLDWPATLPCGHSFCRHCLEALWGARDARRWACPTCRQGAAQQPHLRKNTLLQDLADKYRRAAREIQAGSDPAHCPCPGSSSLSSAAARPRRRPELQRVAVEKSITEVAQELTELVEHLVDIVRSLQNQRPLSESGPDNELSILGKAFSSGVDLSMASPKLVTSDTAAGKIRDILHDLEEIQEKLQESVTWKEAPEAQMQGELLEAPSSSSCPLPDQSHPALRRASRFAQWAIHPTFNLKSLSCSLEVSKDSRTVTVSHRPQPYRWSCERFSTSQVLCSQALSSGKHYWEVDTRNCSHWAVGVASWEMSRDQVLGRTMDSCCVEWKGTSQLSAWHMVKETVLGSDRPGVVGIWLNLEEGKLAFYSVDNQEKLLYECTISASSPLYPAFWLYGLHPGNYLIIKQVKV"}}, "target": "T1, Riplet, full-length (Riplet-FL) (human), Q8IUD6", "T1 chain": "B1 chain", "experiment": "cryo-EM structure; RIG-I, p3dsRNA24 and Riplet mixed 8:1:8, complex isolated on Superdex 200 (25 mM HEPES pH 7.4, 200 mM NaCl, 5 mM BME); 2:1:2 RIG-I:RNA:Riplet particles; three maps at 3.2, 4.0 and 3.9 Å; both purified", "conditions": "remark: other sources report otherwise", "note": "These are yes or no findings as the source states them, for the method shown. Some entries that bind do so weakly or less than the wild type.", "data": [{"binder": "B1", "values": [{"measurement": "binding", "result": "binds"}]}]}
